Experimental data published in article PMC12162876.
No constants are given. Whether binding was seen depends on the method and setting. In cells and extracts the contact can be indirect. Some binding calls cover weakened binding; strength is not graded here.

By UniProt entry, the sequences of proteins in these tests, tags left out. Where a name states a change or a piece, a line headed by the entry shows the natural chain unless it says otherwise.
UniProt P11142: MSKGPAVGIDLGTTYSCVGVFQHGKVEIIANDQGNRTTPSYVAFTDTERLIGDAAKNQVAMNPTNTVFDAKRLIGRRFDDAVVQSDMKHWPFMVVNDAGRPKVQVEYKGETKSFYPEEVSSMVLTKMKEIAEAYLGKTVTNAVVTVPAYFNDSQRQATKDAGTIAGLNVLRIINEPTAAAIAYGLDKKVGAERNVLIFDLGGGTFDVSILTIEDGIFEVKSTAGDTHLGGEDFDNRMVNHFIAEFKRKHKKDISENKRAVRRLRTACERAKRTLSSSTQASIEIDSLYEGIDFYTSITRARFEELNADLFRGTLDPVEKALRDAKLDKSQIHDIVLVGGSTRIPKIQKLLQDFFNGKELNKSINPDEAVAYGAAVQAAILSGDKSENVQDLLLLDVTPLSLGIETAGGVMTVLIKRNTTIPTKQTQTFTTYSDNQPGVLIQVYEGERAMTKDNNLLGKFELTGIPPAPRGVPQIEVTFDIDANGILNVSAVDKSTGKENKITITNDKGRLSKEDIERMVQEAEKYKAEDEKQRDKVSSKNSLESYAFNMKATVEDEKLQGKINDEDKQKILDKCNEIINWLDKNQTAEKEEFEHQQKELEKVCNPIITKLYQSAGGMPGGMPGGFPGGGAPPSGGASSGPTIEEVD
UniProt P15104: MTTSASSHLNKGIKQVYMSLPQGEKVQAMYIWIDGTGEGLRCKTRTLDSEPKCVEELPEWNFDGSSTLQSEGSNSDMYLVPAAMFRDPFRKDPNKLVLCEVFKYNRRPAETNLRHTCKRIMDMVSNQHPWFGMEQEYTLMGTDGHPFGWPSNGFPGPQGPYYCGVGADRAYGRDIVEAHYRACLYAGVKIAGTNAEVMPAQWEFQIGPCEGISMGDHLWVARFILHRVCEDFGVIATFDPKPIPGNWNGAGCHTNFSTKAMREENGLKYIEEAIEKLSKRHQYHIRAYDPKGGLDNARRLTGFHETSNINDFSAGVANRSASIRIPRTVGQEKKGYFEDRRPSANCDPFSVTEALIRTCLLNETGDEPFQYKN

Biological target: HSPA8 (human (endogenous in primary nucleus pulposus cells)) (UniProt P11142)
Experiment: co-IP; NPC transfected with WT or mutant HA-tagged plasmids, lysate, specific antibodies and protein A/G magnetic beads, immunoblot; with or without starvation (Fig. 3j)

Row | binding | Substance
1 | binds | HA-GLUL (WT) (from UniProt P15104 1-373) (enzyme)
2 | no binding | HA-GLUL K276A (from UniProt P15104 1-373) (enzyme)
